The text below walks through data of publication PMC7862700.

Chains of the proteins cited; added tags and fusions are not shown. Lines headed by an entry give the natural chain unless they say otherwise; changes in a name come on top.
UniProt Q00613: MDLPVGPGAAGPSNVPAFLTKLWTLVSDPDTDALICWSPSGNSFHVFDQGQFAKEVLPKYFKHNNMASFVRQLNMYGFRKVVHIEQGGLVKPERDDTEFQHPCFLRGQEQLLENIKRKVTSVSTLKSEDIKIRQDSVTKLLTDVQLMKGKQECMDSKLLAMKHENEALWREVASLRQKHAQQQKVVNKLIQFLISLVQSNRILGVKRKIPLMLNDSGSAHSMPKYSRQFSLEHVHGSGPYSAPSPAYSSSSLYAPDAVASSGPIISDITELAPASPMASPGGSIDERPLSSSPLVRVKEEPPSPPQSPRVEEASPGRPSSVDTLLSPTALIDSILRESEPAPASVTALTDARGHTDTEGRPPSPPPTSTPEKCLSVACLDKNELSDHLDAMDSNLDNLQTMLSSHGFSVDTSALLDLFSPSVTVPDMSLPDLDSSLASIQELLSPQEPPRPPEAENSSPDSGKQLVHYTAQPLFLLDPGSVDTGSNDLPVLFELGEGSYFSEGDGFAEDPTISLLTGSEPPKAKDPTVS

One experiment addresses HSF1 (UniProt Q00613). In words: DAPPL (digital affinity profiling via proximity ligation, sequencing). The settings on record: 10 mM Tris-HCl pH 7.5, 50 mM NaCl, 1 mM DTT, 4% glycerol, room temperature, 30 min; GST-TFs on glutathione beads, 16-mer random dsDNA library, 0.1% …; high values mean tight binding; double strand, one strand shown; scale: fold enrichment (6-mer frequency, TF over GST control).

The target in a further experiment is T1, ELF2 (UniProt Q15723).
T1 sequence: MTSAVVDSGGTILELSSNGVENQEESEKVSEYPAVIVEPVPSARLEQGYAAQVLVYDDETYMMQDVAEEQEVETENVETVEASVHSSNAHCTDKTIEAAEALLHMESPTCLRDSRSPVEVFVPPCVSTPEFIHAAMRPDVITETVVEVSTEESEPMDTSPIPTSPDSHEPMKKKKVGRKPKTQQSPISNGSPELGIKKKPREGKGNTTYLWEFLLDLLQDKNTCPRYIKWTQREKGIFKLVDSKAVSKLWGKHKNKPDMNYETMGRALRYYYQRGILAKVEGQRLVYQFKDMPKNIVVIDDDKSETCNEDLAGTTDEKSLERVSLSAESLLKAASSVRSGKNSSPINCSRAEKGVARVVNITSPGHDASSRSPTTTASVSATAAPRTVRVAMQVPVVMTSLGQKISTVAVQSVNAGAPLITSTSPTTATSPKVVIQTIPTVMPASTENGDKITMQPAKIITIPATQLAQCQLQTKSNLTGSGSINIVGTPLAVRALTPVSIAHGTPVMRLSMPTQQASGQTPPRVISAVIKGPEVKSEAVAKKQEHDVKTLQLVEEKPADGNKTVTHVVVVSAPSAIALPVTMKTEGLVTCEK
Described as above. The conditions noted are these: 10 mM Tris-HCl pH 7.5, 50 mM NaCl, 1 mM DTT, 4% glycerol, room temperature, 30 min; GST-TFs on glutathione beads, 16-mer random dsDNA library, 0.1% …; high values mean tight binding; double strand, one strand shown; scale: fold enrichment (6-mer frequency, TF over GST control).

The entries are a selection whose mix differs from that of the whole data set. For part of these data: At the low end of the ranking, values are background and their order means little. The list shows a part of the results. For part of these data: The source does not settle which construct or isoform was used.

For the sequence CACGGA, the binding signal in the experiment with HSF1 was determined as 0.768; in the experiment with ELF2 it was 1.32.
As for AAGGTC, the results for the binding signal in the experiment with HSF1 and in the experiment with ELF2 were 0.868 and 0.891, respectively.
With CCTGCC, the results for the binding signal with HSF1 and with ELF2 were 0.953 and 1.23, respectively.
Regarding TACGGG, the values for the binding signal with HSF1 and in the experiment with ELF2 were 0.948 and 0.903, respectively.
Regarding GCTCTT, the values for the binding signal with HSF1 and with ELF2 were 1.34 and 1.54, respectively.
Consider AGTACA, for which the binding signal in the experiment with HSF1 is 0.893; with ELF2, 1.17.
For the sequence CTAAGG, the binding signal is 0.961 with HSF1 and 0.856 with ELF2.
For the sequence CCACCG, the binding signal with HSF1 worked out at 0.829; in the experiment with ELF2, 0.977.
Turning to GCGGCA, the binding signal in the experiment with HSF1 is 0.732; with ELF2 it was 0.856.
The corresponding values for AGATGG are 0.974 and 0.8.
For GTACTA, the binding signal with HSF1 stood at 1.15; with ELF2, 1.08.
For the sequence TGTGCG, the binding signal with HSF1 worked out at 0.862; in the experiment with ELF2 it was 1.01.
Regarding AAATAA, the binding signal worked out at 1.48 with HSF1 and 1.46 with ELF2.
Take CATGGT: the binding signal was determined as 0.906 in the experiment with HSF1 and 1.13 with ELF2.
As to CGTCAA, the binding signal in the experiment with HSF1 was found to be 0.933; with ELF2, 1.09.
The like results for CGCTGG were, in that order, 0.907 and 0.943.
On to ATATTG, for which the figures for the binding signal with HSF1 and with ELF2 were 1.19 and 1.33, respectively.
Take TGACCG: the binding signal with HSF1 is 1.17; with ELF2, 1.5.
In the case of TTGGGA, the binding signal with HSF1 came to 0.989; with ELF2, 0.893.
In the case of ACCTGG, the binding signal stood at 1.2 with HSF1 and 1.23 with ELF2.
For the sequence CTCCAA, the binding signal was 1.31 with HSF1 and 1.23 with ELF2.
The corresponding values for AAAGGC are 0.918 and 0.94.
On to TGGTGG, for which the binding signal with HSF1 came to 0.805; with ELF2 it was 1.01.
The like results for AGTGTA were, in that order, 0.801 and 1.03.
As for ACTTCT, the figures for the binding signal in the experiment with HSF1 and with ELF2 were 2.1 and 1.51, respectively.
With ATACTT, the binding signal is 1.34 with HSF1 and 1.77 with ELF2.
The like results for CCCTTG were, in that order, 0.976 and 1.12.
As to CACCTA, the binding signal in the experiment with HSF1 worked out at 0.93; with ELF2, 0.937.
The corresponding values for TGCCTA are 0.963 and 1.
On to TGGCTG, for which the binding signal in the experiment with HSF1 came to 0.863; in the experiment with ELF2, 0.994.
With CGGACC, the binding signal in the experiment with HSF1 was determined as 0.624; with ELF2 it was 0.856.
Regarding TATAGC, the binding signal with HSF1 and with ELF2 was 1.17 each time.
Turning to TAAGCA, the binding signal amounted to 1.29 with HSF1 and 0.951 with ELF2.
The like results for ACAAAG were, in that order, 0.947 and 0.959.
On to GTGCTG, for which the binding signal amounted to 0.772 with HSF1 and 0.851 with ELF2.
GAAAAC: the binding signal with HSF1 and with ELF2 was 1.08 each time.
In the case of GCCGGA, the binding signal was determined as 0.522 with HSF1 and 1.25 with ELF2.
The like results for CTAGGC were, in that order, 1.22 and 1.04.
For ACTCGT, the binding signal with HSF1 is 1.14; with ELF2, 1.16.
As for CACATG, the binding signal in the experiment with HSF1 is 0.865; in the experiment with ELF2 it was 1.06.
The like results for ATCGCG were, in that order, 1.09 and 0.914.
As to CTCACC, the results for the binding signal in the experiment with HSF1 and with ELF2 were 0.995 and 1.15, respectively.
AGCAAC: the binding signal in the experiment with HSF1 came to 0.984; with ELF2 it was 1.06.
With ATTGGC, the binding signal in the experiment with HSF1 worked out at 0.943; in the experiment with ELF2, 1.09.
CTGCGC: the binding signal with HSF1 amounted to 1.1; with ELF2 it was 1.24.
As to TACCTA, the figures for the binding signal with HSF1 and with ELF2 were 1.28 and 1.15, respectively.
With ATAAAG, the binding signal with HSF1 was 1.27; with ELF2, 1.12.
With ATCCTA, the binding signal in the experiment with HSF1 stood at 1.61; with ELF2, 1.37.
Turning to TAGGGC, the binding signal with HSF1 came to 1.05; with ELF2 it was 0.995.
The like results for GCTGAC were, in that order, 0.792 and 1.08.
For the sequence TGAAGG, the binding signal is 0.928 in the experiment with HSF1 and 0.883 with ELF2.
The corresponding values for TATGTT are 1.21 and 1.18.
For the sequence TAGAAC, the binding signal came out at 2.74 in the experiment with HSF1 and 0.989 with ELF2.
The corresponding values for ATGGGA are 0.858 and 0.924.
For the sequence GAATGC, the binding signal stood at 0.985 in the experiment with HSF1 and 0.94 with ELF2.
In the case of ACACTC, the binding signal stood at 0.993 with HSF1 and 1.04 with ELF2.
In the case of CCGCGG, the binding signal in the experiment with HSF1 was 0.722; with ELF2, 0.964.
With CTCGAC, the binding signal with HSF1 turned out to be 1.77; with ELF2 it was 1.38.
For the sequence CGGCCC, the binding signal in the experiment with HSF1 was 0.667; with ELF2, 0.931.
GATCCA: the binding signal with HSF1 is 1.21; with ELF2, 1.02.
